From the supplement of paper PMC12067093, “Discovery and optimisation of a covalent ligand for TRIM25 and its application to targeted protein ubiquitination” (Chemical Science, 2025)
The other results are listed elsewhere or left out.

Protein sequences, listed by entry. Tags and fused reporters are not part of them. Lines headed by an entry give the natural chain unless they say otherwise; changes in a name come on top.
UniProt Q86TI0: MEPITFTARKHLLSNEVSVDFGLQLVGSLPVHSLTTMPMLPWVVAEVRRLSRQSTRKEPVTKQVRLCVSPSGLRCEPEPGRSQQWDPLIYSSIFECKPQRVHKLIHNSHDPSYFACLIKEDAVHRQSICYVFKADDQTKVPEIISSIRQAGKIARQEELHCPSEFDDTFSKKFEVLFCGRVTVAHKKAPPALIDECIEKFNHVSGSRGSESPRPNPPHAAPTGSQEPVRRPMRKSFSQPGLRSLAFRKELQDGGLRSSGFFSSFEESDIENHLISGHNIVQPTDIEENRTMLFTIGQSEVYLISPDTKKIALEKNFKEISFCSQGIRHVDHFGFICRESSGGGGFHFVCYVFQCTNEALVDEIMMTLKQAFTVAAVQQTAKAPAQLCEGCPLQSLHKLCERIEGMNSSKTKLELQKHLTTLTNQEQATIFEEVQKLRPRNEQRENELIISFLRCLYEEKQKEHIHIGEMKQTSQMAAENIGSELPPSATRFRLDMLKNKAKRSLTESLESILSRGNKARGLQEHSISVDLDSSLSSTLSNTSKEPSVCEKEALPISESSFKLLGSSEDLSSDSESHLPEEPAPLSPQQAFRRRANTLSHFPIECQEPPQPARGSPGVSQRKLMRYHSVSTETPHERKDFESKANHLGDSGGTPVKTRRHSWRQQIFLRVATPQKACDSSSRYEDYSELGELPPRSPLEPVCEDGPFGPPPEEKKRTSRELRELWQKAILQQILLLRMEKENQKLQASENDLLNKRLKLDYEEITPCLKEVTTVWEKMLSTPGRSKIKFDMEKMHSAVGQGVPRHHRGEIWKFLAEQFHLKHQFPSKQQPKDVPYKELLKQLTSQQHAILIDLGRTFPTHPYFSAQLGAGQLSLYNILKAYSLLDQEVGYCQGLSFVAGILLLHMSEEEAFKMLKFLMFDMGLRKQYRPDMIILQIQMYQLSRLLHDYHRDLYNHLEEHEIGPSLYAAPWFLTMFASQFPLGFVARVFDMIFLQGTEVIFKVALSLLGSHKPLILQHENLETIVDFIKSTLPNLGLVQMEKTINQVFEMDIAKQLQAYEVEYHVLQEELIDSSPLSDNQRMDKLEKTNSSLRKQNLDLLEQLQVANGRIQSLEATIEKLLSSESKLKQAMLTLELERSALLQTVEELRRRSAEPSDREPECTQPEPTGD
UniProt Q9Y4P3: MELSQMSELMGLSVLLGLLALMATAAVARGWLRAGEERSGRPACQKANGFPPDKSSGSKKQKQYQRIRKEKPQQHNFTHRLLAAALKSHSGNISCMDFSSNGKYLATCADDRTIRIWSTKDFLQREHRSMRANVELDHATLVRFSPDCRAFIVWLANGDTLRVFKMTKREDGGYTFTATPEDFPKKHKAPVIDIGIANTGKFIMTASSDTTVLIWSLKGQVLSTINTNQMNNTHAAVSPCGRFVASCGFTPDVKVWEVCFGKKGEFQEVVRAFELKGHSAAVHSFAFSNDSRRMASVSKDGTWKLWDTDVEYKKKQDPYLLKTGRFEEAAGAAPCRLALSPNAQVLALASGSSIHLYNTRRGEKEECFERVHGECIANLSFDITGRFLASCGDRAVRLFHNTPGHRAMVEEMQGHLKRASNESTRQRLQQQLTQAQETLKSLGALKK
UniProt O75410: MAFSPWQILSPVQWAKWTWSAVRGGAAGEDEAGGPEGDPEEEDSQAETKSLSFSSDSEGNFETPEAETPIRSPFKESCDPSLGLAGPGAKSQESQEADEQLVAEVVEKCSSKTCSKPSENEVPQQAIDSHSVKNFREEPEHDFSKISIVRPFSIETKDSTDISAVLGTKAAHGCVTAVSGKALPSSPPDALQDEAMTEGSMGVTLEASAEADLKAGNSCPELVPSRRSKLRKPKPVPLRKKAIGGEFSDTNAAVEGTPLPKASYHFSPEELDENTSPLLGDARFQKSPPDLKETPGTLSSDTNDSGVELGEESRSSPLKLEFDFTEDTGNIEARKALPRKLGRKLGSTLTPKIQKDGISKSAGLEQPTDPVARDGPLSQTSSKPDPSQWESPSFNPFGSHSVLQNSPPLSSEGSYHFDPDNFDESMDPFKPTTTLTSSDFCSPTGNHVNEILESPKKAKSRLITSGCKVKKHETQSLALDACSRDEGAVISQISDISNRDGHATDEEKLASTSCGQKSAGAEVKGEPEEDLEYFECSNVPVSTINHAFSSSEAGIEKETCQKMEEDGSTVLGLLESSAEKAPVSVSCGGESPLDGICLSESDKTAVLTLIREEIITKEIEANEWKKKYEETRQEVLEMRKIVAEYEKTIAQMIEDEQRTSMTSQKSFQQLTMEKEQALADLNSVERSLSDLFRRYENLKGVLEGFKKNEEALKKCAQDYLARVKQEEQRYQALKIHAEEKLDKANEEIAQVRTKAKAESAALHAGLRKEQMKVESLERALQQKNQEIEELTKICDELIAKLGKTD
UniProt Q9C0D5: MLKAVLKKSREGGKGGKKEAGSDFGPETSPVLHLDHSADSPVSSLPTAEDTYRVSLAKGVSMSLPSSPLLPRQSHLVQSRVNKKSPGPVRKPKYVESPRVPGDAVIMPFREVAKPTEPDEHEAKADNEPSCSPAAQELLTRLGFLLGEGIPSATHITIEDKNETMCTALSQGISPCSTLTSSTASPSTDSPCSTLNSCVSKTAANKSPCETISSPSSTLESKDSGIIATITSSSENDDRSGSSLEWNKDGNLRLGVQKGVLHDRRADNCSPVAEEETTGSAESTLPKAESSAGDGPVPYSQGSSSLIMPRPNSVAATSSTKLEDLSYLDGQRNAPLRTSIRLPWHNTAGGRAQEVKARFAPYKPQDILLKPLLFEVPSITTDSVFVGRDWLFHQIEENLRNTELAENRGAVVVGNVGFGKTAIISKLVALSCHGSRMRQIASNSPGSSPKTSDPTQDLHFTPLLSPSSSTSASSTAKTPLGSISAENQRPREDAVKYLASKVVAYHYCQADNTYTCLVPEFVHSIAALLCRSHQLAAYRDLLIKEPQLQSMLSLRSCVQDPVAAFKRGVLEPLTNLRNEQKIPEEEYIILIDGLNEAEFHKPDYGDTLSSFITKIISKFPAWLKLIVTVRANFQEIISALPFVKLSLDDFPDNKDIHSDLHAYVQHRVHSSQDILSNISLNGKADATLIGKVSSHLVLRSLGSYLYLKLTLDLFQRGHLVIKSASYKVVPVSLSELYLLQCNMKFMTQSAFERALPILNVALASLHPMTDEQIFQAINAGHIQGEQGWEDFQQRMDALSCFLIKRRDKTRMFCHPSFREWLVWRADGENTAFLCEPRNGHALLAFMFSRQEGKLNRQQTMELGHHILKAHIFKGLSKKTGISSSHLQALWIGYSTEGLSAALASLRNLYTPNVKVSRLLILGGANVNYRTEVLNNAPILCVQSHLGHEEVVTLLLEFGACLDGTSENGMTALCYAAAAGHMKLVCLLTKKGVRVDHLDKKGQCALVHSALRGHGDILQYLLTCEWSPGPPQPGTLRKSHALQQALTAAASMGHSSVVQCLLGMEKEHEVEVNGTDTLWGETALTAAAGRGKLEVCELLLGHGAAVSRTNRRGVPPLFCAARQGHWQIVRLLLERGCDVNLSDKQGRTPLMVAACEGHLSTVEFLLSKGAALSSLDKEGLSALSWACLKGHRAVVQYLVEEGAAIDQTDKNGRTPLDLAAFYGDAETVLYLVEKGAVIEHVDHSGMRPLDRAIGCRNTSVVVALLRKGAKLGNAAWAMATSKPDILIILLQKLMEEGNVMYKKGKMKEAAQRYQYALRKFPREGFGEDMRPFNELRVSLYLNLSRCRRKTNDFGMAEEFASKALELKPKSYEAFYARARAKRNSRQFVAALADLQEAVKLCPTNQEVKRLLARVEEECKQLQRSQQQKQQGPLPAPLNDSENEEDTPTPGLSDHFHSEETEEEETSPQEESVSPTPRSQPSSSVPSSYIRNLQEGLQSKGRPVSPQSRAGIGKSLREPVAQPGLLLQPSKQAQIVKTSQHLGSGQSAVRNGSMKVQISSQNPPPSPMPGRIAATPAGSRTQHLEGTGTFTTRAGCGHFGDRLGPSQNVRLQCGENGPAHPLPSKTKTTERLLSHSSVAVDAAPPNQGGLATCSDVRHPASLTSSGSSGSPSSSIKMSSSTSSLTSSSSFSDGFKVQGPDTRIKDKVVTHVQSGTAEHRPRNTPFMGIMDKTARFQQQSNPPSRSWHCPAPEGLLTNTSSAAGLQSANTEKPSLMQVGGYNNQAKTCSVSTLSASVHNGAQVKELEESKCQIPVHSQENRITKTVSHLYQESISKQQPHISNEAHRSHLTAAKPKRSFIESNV
UniProt Q6ZMZ3: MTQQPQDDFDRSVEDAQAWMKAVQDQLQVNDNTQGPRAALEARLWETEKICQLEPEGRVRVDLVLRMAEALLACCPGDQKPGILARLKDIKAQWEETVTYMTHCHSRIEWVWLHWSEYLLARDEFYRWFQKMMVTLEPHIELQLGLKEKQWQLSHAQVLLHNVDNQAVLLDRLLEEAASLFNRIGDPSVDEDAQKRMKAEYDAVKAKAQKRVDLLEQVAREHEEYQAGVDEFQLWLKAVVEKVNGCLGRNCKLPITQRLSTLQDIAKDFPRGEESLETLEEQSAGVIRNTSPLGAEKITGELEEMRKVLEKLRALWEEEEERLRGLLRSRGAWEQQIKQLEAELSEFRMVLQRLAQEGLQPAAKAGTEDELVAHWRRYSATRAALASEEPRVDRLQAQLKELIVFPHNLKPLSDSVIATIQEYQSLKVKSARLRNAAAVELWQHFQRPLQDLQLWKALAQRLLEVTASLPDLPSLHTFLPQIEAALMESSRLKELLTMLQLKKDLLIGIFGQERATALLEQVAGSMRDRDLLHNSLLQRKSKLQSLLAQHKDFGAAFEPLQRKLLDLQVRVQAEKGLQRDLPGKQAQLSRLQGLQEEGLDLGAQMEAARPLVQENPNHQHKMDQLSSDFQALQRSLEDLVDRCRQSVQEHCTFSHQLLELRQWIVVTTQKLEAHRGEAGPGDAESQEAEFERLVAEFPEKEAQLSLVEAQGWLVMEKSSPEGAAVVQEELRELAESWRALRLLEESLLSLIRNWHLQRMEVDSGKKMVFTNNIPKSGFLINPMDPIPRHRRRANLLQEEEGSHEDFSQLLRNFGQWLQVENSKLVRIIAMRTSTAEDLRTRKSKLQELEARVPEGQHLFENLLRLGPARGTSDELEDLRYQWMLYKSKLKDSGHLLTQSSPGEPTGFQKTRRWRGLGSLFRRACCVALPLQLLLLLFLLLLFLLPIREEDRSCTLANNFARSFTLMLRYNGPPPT
UniProt Q9BTW9: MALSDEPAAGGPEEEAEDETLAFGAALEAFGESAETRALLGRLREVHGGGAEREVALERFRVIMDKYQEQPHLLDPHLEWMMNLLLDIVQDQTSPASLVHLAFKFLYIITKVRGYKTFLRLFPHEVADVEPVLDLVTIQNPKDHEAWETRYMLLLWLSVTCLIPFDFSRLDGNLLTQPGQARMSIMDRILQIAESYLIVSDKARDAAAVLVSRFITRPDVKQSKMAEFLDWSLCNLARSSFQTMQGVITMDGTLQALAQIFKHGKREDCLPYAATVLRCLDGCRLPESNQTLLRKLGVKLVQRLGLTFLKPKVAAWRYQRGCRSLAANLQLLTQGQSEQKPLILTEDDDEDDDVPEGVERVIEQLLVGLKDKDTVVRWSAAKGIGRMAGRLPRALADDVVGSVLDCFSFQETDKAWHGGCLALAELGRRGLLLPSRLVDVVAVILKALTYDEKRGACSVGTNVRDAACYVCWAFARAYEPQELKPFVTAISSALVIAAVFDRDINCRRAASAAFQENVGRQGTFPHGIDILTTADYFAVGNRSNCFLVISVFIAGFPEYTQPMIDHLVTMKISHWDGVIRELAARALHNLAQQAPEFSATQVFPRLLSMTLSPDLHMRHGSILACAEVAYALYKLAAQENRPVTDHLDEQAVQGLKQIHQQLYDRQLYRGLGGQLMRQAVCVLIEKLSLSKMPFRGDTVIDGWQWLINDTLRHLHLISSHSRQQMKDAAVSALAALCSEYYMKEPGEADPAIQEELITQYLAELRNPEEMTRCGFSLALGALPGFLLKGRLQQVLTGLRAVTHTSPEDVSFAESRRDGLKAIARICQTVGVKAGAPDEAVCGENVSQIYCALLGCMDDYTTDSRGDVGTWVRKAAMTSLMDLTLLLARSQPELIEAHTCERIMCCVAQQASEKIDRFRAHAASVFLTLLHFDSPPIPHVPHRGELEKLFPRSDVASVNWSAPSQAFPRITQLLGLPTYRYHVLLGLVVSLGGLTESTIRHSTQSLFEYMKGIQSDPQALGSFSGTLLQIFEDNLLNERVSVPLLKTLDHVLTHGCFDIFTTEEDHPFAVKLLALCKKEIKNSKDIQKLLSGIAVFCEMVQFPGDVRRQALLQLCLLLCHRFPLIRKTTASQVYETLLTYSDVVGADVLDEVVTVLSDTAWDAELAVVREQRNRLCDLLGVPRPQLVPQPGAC

Compound: Cc1cc(ccc1-c1ccccc1)C(=O)N1CCCN(CC1)C(=O)CCl [compound 10]
Assay: probe-labelled cysteine peptide fold change vs DMSO (competition) (log2 fold change); higher = less target engagement (more negative = stronger competition)
Settings: THP-1, incubation time: 4 h
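Also: competitive profiling in live THP-1 cells: cysteine peptides tagged with an iodoacetamide desthiobiotin (IA-DTB) probe, intensity after compound treatment relative to DMSO-treated cells.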

| Target | probe-labelled cysteine peptide fold change (10 µM) | probe-labelled cysteine peptide fold change (50 µM) |
| --- | --- | --- |
| TBL1XR1_Q9BZK7_434_LWDVDRGICIHTLTK (UniProt Q9BZK7) | -0.0216 | -0.194 |
| TBC1D9B_Q66K14_76_ILHQTQDSQVYWTVACGSSR (UniProt Q66K14) | 0.207 | 0.0269 |
| SYMPK_Q92797_848_GMGMNSPELLLLVENCPK (UniProt Q92797) | 0.311 | -0.0735 |
| TBL3_Q12788_597_NNECVR (UniProt Q12788) | 0.383 | 0.285 |
| TBC1D1_Q86TI0_604_RANTLSHFPIECQEPPQPAR (UniProt Q86TI0) | -0.243 | -0.382 |
| TAP2_Q03519_571_NNIAYGLQSCEDDK (UniProt Q03519) | 0.0716 | 0.287 |
| TAF4_O00268_1022_KVDCPGPGSGAEGSGPGSVVPGSSGVGTPR (UniProt O00268) | -0.0723 | -0.344 |
| TBRG4_Q969Z0_370_AQDITLPHLCSVLLAFAR (UniProt Q969Z0) | -0.0263 | 0.177 |
| TBL2_Q9Y4P3_375_VHGECIANLSFDITGR (UniProt Q9Y4P3) | -0.122 | -0.338 |
| TBL1X_O60907_571_VGASASDGSVCVLDLRK (UniProt O60907) | -0.412 | -0.304 |
| TACC1_O75410_114_TCSKPSENEVPQQAIDSHSVK (UniProt O75410) | -0.266 | -0.655 |
| TANC1_Q9C0D5_985_LVCLLTK (UniProt Q9C0D5) | -0.179 | -0.214 |
| SYNE3_Q6ZMZ3_51_ICQLEPEGR (UniProt Q6ZMZ3) | -0.274 | -0.146 |
| TACC1_O75410_794_ICDELIAK (UniProt O75410) | 0.223 | 0.161 |
| TCEA1_P23193_271_NCTYTQVQTR (UniProt P23193) | 0.0737 | 0.0314 |
| TBC1D5_Q92609_192_ILTDVLFCYAR (UniProt Q92609) | 0.105 | 0.0472 |
| TBCD_Q9BTW9_1075_LLALCK (UniProt Q9BTW9) | 0.244 | 0.279 |
| TBC1D1_Q86TI0_390_APAQLCEGCPLQSLHK (UniProt Q86TI0) | 0.147 | 0.00484 |
| TARSL2_A2RTX5_546_FQQDDAHIFCTVEQIEEEIK (UniProt A2RTX5) | 0.838 | 0.796 |
| TAF6L_Q9Y6J9_81_WSSVEAVCGYGSQEALPMRPAR (UniProt Q9Y6J9) | -0.0172 | -0.0202 |

| Target | probe-labelled cysteine peptide fold change (10 µM) | probe-labelled cysteine peptide fold change (50 µM) |
| --- | --- | --- |
| TBC1D1_Q86TI0_322_EISFCSQGIR (UniProt Q86TI0) | -0.0673 | 0.0796 |
| TBCD_Q9BTW9_420_AWHGGCLALAELGR (UniProt Q9BTW9) | 0.074 | 0.0126 |
| SYTL4_Q96C24_596_LEDLQHMCLELTVWDREPLASNDFLGGVR (UniProt Q96C24) | 0.232 | 0.44 |
| TAF5_Q15542_715_GHTDTVCSLR (UniProt Q15542) | 0.202 | 0.123 |
| TCEA2_Q15560_173_LSAQIEECIFR (UniProt Q15560) | 0.18 | -0.226 |
| TCIRG1_Q13488_317_CLIAEAWCSVR (UniProt Q13488) | -0.0268 | 0.103 |
| TANC1_Q9C0D5_741_VVPVSLSELYLLQCNMK (UniProt Q9C0D5) | 0.208 | 0.25 |
| TBC1D4_O60343_885_LDYEEVGACQK (UniProt O60343) | -0.155 | 0.0406 |
| TAGLN2_P37802_63_DGTVLCELINALYPEGQAPVK (UniProt P37802) | 0.24 | 0.191 |
| TBC1D13_Q9NVG8_131_RLCPDISFFQR (UniProt Q9NVG8) | -0.0543 | 0.0628 |
| TAPT1_Q6NXT6_562_DLLEIDRFTICGNRID (UniProt Q6NXT6) | -0.412 | -0.716 |
| TAF6_P49848_235_EITEACVGSCEAK (UniProt P49848) | -0.193 | -1.67 |
| TANK_Q92844_177_LNIPDTATETQCSVPIQCTDK (UniProt Q92844) | -0.0664 | -0.302 |
| TAX1BP1_Q86VP1_350_EDTCFLK (UniProt Q86VP1) | -0.379 | -0.87 |
| TAPBP_O15533_115_WASGLTPAQNCPR (UniProt O15533) | 0.00833 | -0.016 |
| TBCE_Q15813_141_NCAVSCAGEK (UniProt Q15813) | -0.11 | -1.39 |
| TCEA1_P23193_291_SADEPMTTFVVCNECGNR (UniProt P23193) | 0.098 | -0.00719 |
| TACO1_Q9BSH4_160_CQADIR (UniProt Q9BSH4) | -0.127 | -0.0524 |
| TBC1D1_Q86TI0_387+390_APAQLCEGCPLQSLHK (UniProt Q86TI0) | 0.127 | -0.372 |
